Test results reported in paper PMC6934747.
These are yes or no findings as the source states them, for the method shown. Binding seen in cells or lysates may run through a third protein. Some binding calls cover weakened binding; strength is not graded here. Tags and fused reporters may be left off the sequences shown.

Biological target: T1, myc-tagged human Crebl2 (human) (UniProt O60519)
T1 sequence: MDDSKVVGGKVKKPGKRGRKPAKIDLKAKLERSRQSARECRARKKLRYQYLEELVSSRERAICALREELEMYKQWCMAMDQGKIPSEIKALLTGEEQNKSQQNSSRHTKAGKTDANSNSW
Assay: co-IP; myc-CREBL2 precipitated with anti-Myc tag antibody (9b11) and ProteinA/G beads from lysates of transfected cells (HEK293T by the legend, NIH3T3 by the methods); lysis buffer 50 mM Tris pH7.5, 150 mM NaCl, 1% Triton-X; 3xHA-CREBRF detected by anti-HA blot; with or without rapamycin treatment of the cells (no effect on the amount co-precipitated)

binding: binds
B1: 3xHA-tagged human Crebrf (protein, UniProt Q8IUR6 1-639)
chain: MPQPSVSGMDPPFGDAFRSHTFSEQTLMSTDLLANSSDPDFMYELDREMNYQQNPRDNFLSLEDCKDIENLESFTDVLDNEGALTSNWEQWDTYCEDLTKYTKLTSCDIWGTKEVDYLGLDDFSSPYQDEEVISKTPTLAQLNSEDSQSVSDSLYYPDSLFSVKQNPLPSSFPGKKITSRAAAPVCSSKTLQAEVPLSDCVQKASKPTSSTQIMVKTNMYHNEKVNFHVECKDYVKKAKVKINPVQQSRPLLSQIHTDAAKENTCYCGAVAKRQEKKGMEPLQGHATPALPFKETQELLLSPLPQEGPGSLAAGESSSLSASTSVSDSSQKKEEHNYSLFVSDNLGEQPTKCSPEEDEEDEEDVDDEDHDEGFGSEHELSENEEEEEEEEDYEDDKDDDISDTFSEPGYENDSVEDLKEVTSISSRKRGKRRYFWEYSEQLTPSQQERMLRPSEWNRDTLPSNMYQKNGLHHGKYAVKKSRRTDVEDLTPNPKKLLQIGNELRKLNKVISDLTPVSELPLTARPRSRKEKNKLASRACRLKKKAQYEANKVKLWGLNTEYDNLLFVINSIKQEIVNRVQNPRDERGPNMGQKLEILIKDTLGLPVAGQTSEFVNQVLEKTAEGNPTGGLVGLRIPTSKV
